{"source": "patent US12441988B2", "about": "“Engineered adult-like human heart tissue” (THE TRUSTEES OF COLUMBIA UNIVERSITY IN THE CITY OF NEW YORK, priority 2015, dated 2025)", "tested_on": "TS organoids", "assay": "Timothy Syndrome disease model, calcium transients and EADs", "type": "cell-based, human", "conditions": "block of the Cav1.2 channel", "protocol": "Timothy Syndrome hiPSCs were generated and differentiated into CMs as previously described. Briefly, fibroblasts were isolated from patients with Timothy Syndrome (TS line) and a control healthy fibroblast line (#3, IMR90 cell line) and transduced by lipofection using established episomal vectors. […] 2 μM IWP-3 (Wnt inhibitor, #SML0533, Lot #102m4613V, Sigma-Aldrich) was added for days 5-11, in DF20 for days 5-7 and DF5 for day 7 onwards.\nTissues (organoids and FCTs) within culture platforms were loaded with Fluo-4 NW (50% v/v, Life Technologies) in RPMI+B27 media containing 5 μM blebbistatin (Sigma) to reduce movement artifacts, for 30 minutes at 37° C. […] Videos were analyzed in MATLAB using a custom script that calculated the temporal changes in calcium fluorescence intensity. Specifically, each frame was normalized to a baseline background region to give baseline-corrected changes in minimum and maximum fluorescence values for each frame. This temporal change in fluorescence intensity was presented as a calcium transient trace from which measurements were obtained.\nCalcium transients were analyzed to measure the irregularity of various parameters as previously described. Briefly, the calcium transient “timing” was determined as the peak-to peak value of two successive beats as defined by the peak maxima. […]", "note": "At least one structure is not confirmed: it was looked up by name or label, or the drawing left a doubt."}
{"smiles": "COC(=O)C1=C(C)NC(C)=C(C(=O)OC)C1c1ccccc1[N+](=O)[O-]", "note": "[nifedipine]", "values": [{"measurement": "Ca2+ transient amplitudes", "value": "decreased Ca2+ transient amplitudes"}]}
